Results reported in PMC11476017, “A Lincomycin-Specific Antibody Was Developed Using Hapten Prediction, and an Immunoassay Was Established to Detect Lincomycin in Pork and Milk” (Foods, 2024).

Test system: T1, monoclonal antibody 1B11 (LIN/1B11)
T1 construct: whole monoclonal antibody, IgG1
Experiment: indirect competitive ELISA, cross-reactivity relative to LIN

Row | SMILES | % cross-reactivity [% cross-reactivity]
1 | CCC[C@@H]1C[C@@H](C(=O)N[C@@H]([C@H]2O[C@H](SC)[C@H](O)[C@@H](O)[C@H]2O)[C@H](C)Cl)N(C)C1 [CLIN, Clindamycin] | 2.8
2 | CC[C@@H]1CCN[C@H](C(=O)N[C@@H]([C@H]2O[C@H](SC)[C@H](O)[C@@H](O)[C@H]2O)[C@H](C)Cl)C1 [PIR, Pirimicin] | 2.4
